Results on three substances are retold here after publication PMC8517087, “Analysis of M4 Transmembrane Segments in NMDA Receptor Function: A Negative Allosteric Modulatory Site at the GluN1 M4 is Determining the Efficiency of Neurosteroid Modulation” (Frontiers in Pharmacology, 2021).

The target of one assay is GluN2A^F637C (mouse) (UniProt P35436). In words: cross-linking; disulfide bond between cysteines introduced in the M4^N1 fragment and in GluN2A, co-expressed with GluN1^ΔM4 in oocytes; surface proteins biotinylated and isolated on streptavidin; denaturing SDS-PAGE without or with DTT; Western blot against the GluN1 CTD. On the technique in general: In western blotting, separated proteins are transferred to a membrane and probed.

In assay [1] the target is C-terminal truncated GluN2A^1–929 construct, His-tagged (mouse) (UniProt P35436). In words: pull-down; metabolic (35S) methionine labelling of GluN2A*-His and GluN1^ΔM4 in oocytes, in the absence and presence of M4^N1; the purification step is not told for this figure (Supplementary Figure S1).
The target in a further assay is GluN2A^M560C (mouse) (UniProt P35436). The assay is described as follows: cross-linking; disulfide bond between cysteines introduced in the M4^N1 fragment and in GluN2A, co-expressed with GluN1^ΔM4 in oocytes; surface proteins biotinylated and isolated on streptavidin; denaturing SDS-PAGE without or with DTT; Western blot against the GluN1 CTD.

No constants are given. Whether binding was seen depends on the method and setting. Binding seen in cells or lysates may run through a third protein. Some results given as binding are weak or reduced against the parent protein; the word gives no strength.

With “M4^N1-M813C, isolated GluN1 M4 fragment (GluN1^802–925) with M813C (from UniProt P35439 802-925) (domain or fragment)”, in the assay with GluN2A^F637C (mouse), the binding entry is “binds”.
For the substance “GluN1^1–802, M4-deleted GluN1 subunit (from UniProt P35439 19-802) (domain or fragment)”, the binding entry in assay [1] was “binds”.
As to “M4^N1-F817C, isolated GluN1 M4 fragment (GluN1^802–925) with F817C (from UniProt P35439 802-925) (domain or fragment)”, the binding entry with GluN2A^M560C (mouse) is listed as “binds”.
